Results are given in words; binding and its absence hold for the method and conditions named. For some assays here: Binding seen in cells or lysates may run through a third protein. Some binding calls cover weakened binding; strength is not graded here. One block for each binder: values may come before it.
Legend:
[1] = molecular target: fusion protein glutathione-S-transferase-Bcl-W [GST: P08515]; assay: fluorescence polarisation
[2] = molecular target: fusion protein glutathione-S-transferase-Bcl-XL [GST: P08515]; assay: fluorescence polarisation
[3] = molecular target: C-terminal truncate of Bcl-XL (1-209) fused to the LexA DNA binding domain (UniProt P0A7C2); assay: yeast two-hybrid (HIS3 selection)
[4] = molecular target: C-terminal truncate of Bcl-2 (1-211) fused to the LexA DNA binding domain (UniProt P0A7C2); assay: yeast two-hybrid (HIS3 selection)
Bcl-W "bait" protein = molecular target: T1, Bcl-W "bait" protein (UniProt Q92843); assay: yeast two-hybrid (HIS3 selection)
T1 sequence (looked up): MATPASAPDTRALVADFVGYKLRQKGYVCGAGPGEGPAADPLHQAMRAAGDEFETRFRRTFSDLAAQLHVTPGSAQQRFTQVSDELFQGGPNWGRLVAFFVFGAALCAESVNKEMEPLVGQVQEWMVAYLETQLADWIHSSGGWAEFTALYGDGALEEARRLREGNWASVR

Chains of the proteins cited; added tags and fusions are not shown. Lines headed by an entry give the natural chain unless they say otherwise; changes in a name come on top.
UniProt P0A7C2: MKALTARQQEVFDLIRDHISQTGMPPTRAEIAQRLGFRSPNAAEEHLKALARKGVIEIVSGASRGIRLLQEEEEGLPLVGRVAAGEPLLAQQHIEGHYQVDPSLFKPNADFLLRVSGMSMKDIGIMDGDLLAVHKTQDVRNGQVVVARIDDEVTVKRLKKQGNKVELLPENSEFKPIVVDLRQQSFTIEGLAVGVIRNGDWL

[5] = molecular target: fusion protein glutathione-S-transferase-Bcl-W [GST: P08515]; assay: GST pull-down competition against 35S-Bid, peptide 5 to 20 uM
[6] = molecular target: fusion protein glutathione-S-transferase-Bcl-2 [GST: P08515]; assay: as above
[7] = molecular target: fusion protein glutathione-S-transferase-Bcl-XL [GST: P08515]; assay: as above
[8] = molecular target: fusion protein glutathione-S-transferase-Bcl-W [GST: P08515]; assay: co-immunoprecipitation and GST pull-down (summary sentence; constructs of the co-immunoprecipitation not described)
[9] = molecular target: fusion protein glutathione-S-transferase-Bcl-2 [GST: P08515]; assay: as above
[10] = molecular target: fusion protein glutathione-S-transferase-Bcl-XL [GST: P08515]; assay: as above

binding [1]: binds
binding [2]: binds
Binder: DTRRSMVFARHLREVGDEFRSR (fluorescein at the N-terminal end) [peptide obtained in Example 1 labelled with fluorescein at the N-terminal end]

binding [3]: binds
binding [4]: binds
binding (Bcl-W "bait" protein): binds
Binder: DTRRSMVFARHLREVGDEFRSR (peptide, not shown: large carriers) [short peptide of 22 amino acids (SEQ. ID. NO.1) as two-hybrid "prey"]

binding [5]: binds
binding [6]: binds
binding [7]: binds
binding [8]: binds
binding [9]: binds
binding [10]: binds
Binder: DTRRSMVFARHLREVGDEFRSR [peptide described in SEQ. ID. NO.1 (22 amino acid fragment of HC21ORF80)]
